Assay results reported in PMC3927929.

Biological target: T1, Cdc37 (cell-division cycle 37) (as used in Supplementary Figure S2) (human) (UniProt Q16543)
T1 sequence: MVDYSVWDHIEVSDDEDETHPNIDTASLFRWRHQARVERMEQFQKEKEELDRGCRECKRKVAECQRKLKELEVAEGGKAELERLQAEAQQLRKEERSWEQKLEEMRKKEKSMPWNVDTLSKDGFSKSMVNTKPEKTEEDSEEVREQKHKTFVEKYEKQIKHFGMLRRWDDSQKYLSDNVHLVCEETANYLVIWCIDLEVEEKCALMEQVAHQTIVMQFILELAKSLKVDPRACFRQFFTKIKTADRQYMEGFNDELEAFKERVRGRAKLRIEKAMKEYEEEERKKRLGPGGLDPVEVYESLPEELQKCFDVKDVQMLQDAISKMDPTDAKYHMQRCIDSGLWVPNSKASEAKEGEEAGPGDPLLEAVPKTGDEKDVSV
Experiment: co-IP; co-immunoprecipitation among Hsp90α, PKCγ, Hsp70 and Cdc37 (Supplementary Figure S2A, S2B, S2E); also after knock-down of Hsp70 or Cdc37 by siRNA

Substance: Hsp70 (as used in Supplementary Figure S2) (human)
- binding: no binding

These are yes or no findings as the source states them, for the method shown. Binding seen in cells or lysates may run through a third protein.
